Experimental data: PMC10897394
Results are given in words; binding and its absence hold for the method and conditions named. Binding seen in cells or lysates may run through a third protein. Some entries that bind do so weakly or less than the wild type. Tags and fused reporters may be left off the sequences shown.

Key:
Assay in all cases: co-IP; plasmid pairs co-expressed in Arabidopsis protoplasts for 24 h; lysate on Anti-GFP Nanobody Agarose Beads, 4 °C 2 h; 50 mM Tris-HCl pH 7.4, 150 mM NaCl, 1 mM MgCl2, 10% glycerol, 0.5% Nonidet P-40; blots with anti-Myc and anti-GFP; some samples with 1 μM Pep1 for 20 min or in protoplasts from ROT4-overexpressing plants
[1] = biological target: T1, PEPR1-GFP (Arabidopsis thaliana) (UniProt Q9SSL9)
T1 sequence: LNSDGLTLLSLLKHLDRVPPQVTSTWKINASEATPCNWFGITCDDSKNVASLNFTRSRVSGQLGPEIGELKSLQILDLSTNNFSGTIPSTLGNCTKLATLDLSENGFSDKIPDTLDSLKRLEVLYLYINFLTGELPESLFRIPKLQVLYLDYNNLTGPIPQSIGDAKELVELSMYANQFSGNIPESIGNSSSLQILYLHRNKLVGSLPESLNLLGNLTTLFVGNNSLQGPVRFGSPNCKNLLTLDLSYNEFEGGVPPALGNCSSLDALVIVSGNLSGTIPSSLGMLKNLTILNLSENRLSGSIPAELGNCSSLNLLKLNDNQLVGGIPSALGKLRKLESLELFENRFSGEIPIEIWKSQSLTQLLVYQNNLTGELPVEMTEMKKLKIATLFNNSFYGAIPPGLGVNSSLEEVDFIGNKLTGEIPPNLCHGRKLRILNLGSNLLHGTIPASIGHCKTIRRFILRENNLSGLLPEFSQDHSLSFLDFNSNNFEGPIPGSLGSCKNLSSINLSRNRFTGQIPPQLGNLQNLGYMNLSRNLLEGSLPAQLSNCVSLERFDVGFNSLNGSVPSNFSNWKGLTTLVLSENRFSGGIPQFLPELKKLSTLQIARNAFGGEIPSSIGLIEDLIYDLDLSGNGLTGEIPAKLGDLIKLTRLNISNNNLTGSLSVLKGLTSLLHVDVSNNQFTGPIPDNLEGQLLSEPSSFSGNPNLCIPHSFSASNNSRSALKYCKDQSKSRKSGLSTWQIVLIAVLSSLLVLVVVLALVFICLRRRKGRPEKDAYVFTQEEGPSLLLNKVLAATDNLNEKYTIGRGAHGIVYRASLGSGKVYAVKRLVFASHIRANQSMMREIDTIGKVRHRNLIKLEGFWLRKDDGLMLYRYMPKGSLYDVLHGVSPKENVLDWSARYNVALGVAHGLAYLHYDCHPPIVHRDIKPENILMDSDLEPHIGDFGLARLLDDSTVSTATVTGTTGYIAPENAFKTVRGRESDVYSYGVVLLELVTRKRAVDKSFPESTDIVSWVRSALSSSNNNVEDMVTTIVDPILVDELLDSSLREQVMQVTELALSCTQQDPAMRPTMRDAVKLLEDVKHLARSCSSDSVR

[2] = biological target: T2, GFP-ROT4(WT) (Arabidopsis thaliana) (UniProt Q7XXN8)
T2 sequence (chain, S-acylated in plant cells, C42 the predominant S-acylation site): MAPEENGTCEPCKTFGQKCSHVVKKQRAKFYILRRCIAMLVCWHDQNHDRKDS

[3] = biological target: T3, GFP-ROT4(C42S) (Arabidopsis thaliana) (UniProt Q7XXN8)
T3 sequence: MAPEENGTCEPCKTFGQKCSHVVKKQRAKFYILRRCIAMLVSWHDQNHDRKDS

B1: BSK5-Myc (enzyme, UniProt Q9FIL1 1-489)
chain: MGPRCSKLSLCWWPTHLKSTHNEASDLDNGTDDLPSFTEFSFDQLRAATCGFSTDSIVSEHGVKAPNVVYKGRLEDDRWIAVKRFNRSAWPDTRQFLEEAKAVGQLRNERLANLIGFCCEGDERLLVAEFMPFETLSKHLFHWDSQPMKWSMRLRVALYLAQALEYCSSKGRALYHDLNAYRILFDQDGNPRLSCFGLMKNSRDGKSYSTNLAFTPPEYLRTGRVIPESVVYSFGTLLLDLLSGKHIPPSHALDLIRGKNFLMLMDSCLDGHFSNDDGTDLVRLASRCLQYEARERPNVKSLVSSLAPLQKETDIPSHVLMGIPHGAASPKETTSLTPLGDACSRHDLTAIHEILEKVGYKDDEGVANELSFQVWTDQIQETLNSKKQGDAAFKGKDFVTAVECYTQFIEDGTMVSPTVFARRCLCYLMSNMPQEALGDAMQAQVVSPEWPTAFYLQAAALFSLGMDKDACETLKDGTSLEAKKHNNRN
- binding [1]: binds
- binding [2]: binds
- binding [3]: binds

B2: BSK5(S209A/T210A)-Myc (enzyme, UniProt Q9FIL1 1-489)
chain: MGPRCSKLSLCWWPTHLKSTHNEASDLDNGTDDLPSFTEFSFDQLRAATCGFSTDSIVSEHGVKAPNVVYKGRLEDDRWIAVKRFNRSAWPDTRQFLEEAKAVGQLRNERLANLIGFCCEGDERLLVAEFMPFETLSKHLFHWDSQPMKWSMRLRVALYLAQALEYCSSKGRALYHDLNAYRILFDQDGNPRLSCFGLMKNSRDGKSYAANLAFTPPEYLRTGRVIPESVVYSFGTLLLDLLSGKHIPPSHALDLIRGKNFLMLMDSCLDGHFSNDDGTDLVRLASRCLQYEARERPNVKSLVSSLAPLQKETDIPSHVLMGIPHGAASPKETTSLTPLGDACSRHDLTAIHEILEKVGYKDDEGVANELSFQVWTDQIQETLNSKKQGDAAFKGKDFVTAVECYTQFIEDGTMVSPTVFARRCLCYLMSNMPQEALGDAMQAQVVSPEWPTAFYLQAAALFSLGMDKDACETLKDGTSLEAKKHNNRN
- binding [1]: binds
